Results deposited as PubChem BioAssay AID1053208 (Peter MacCallum Cancer Centre, 2014).

- Purpose: 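Find knock-downs that sensitise mouse osteosarcoma cells to doxorubicin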 (primary screen)
- Cell system: mouse osteosarcoma cells, early-passage culture from an engineered mouse model of fibroblastic bone tumour
- Reagent: siRNA pool against mouse genes, 40 nM
- Timing: about 120 h (48 h before drug, then 72 h with drug)
- Conditions: doxorubicin 100 nM for 72 h, roughly 30-40% inhibitory dose
- Measurement: 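Viability read as ATP luminescence after 72 h of 100 nM doxorubicin or none, duplicate wells averaged, scaled to non-targeting siRNA, then expressed as robust z-scores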
- Direction: viability z-score with doxorubicin: higher = more viable cells under doxorubicin; viability z-score without drug: higher = more viable cells with knock-down alone
- Active means: 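a pool counts as active when its viability z-score with doxorubicin is -2 or below and its z-score without drug lies between -2 and 2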
Here is a random part of about 17,000 reagents tested. Of all reagents, 788 (4.7%) were called active. 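Calls rest on z-score classes alone; an extra cut-off of viability at most 70% of control was not applied to them.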 Not all columns of the deposit are shown. Reagent sequences are not shown.

Gene	combined z-score class	viability z-score with doxorubicin	viability z-score without drug	Call
Clec18a (C-type lectin domain family 18, member A)	no change with or without drug	0.34	-0.51	inactive
Teddm3 (transmembrane epididymal family member 3)	no change with or without drug	-0.22	1.52	inactive
Spock2	no change with or without drug	0	-0.17	inactive
Pbdc1 (polysaccharide biosynthesis domain containing 1)	no change with or without drug	0	-0.51	inactive
Sertm1 (serine rich and transmembrane domain containing 1)	no change with or without drug	1.91	1.85	inactive
Slc39a1	low cell count with doxorubicin only	-2.25	-1.69	active
Patz1 (POZ (BTB) and AT hook containing zinc finger 1)	no change with or without drug	-0.22	0.34	inactive
Chsy3 (chondroitin sulfate synthase 3)	no change with or without drug	1.01	0.17	inactive
Frzb (frizzled-related protein)	no change with or without drug	1.57	-1.18	inactive
Slc34a2	no change with or without drug	-0.67	-1.01	inactive
Zp1 (zona pellucida glycoprotein 1)	low cell count without drug only	-1.57	-2.87	inactive
Asxl2 (ASXL transcriptional regulator 2)	no change with or without drug	-0.22	-0.17	inactive
Oas1h (2'-5' oligoadenylate synthetase 1H)	no change with or without drug	-0.11	-0.51	inactive
Mmp19 (matrix metallopeptidase 19)	no change with or without drug	0.22	0.84	inactive
St8sia5 (ST8 alpha-N-acetyl-neuraminide alpha-2,8-sialyltransferase 5)	no change with or without drug	0.22	0.84	inactive
Ipo4 (importin 4)	no change with or without drug	-0.67	-1.18	inactive
Etnk1 (ethanolamine kinase 1)	no change with or without drug	-1.12	0.17	inactive
AMIGO	no change with or without drug	0	-0.67	inactive

Laid out differently: results already given
| Gene | combined z-score class | viability z-score with doxorubicin | viability z-score without drug | Call |
| --- | --- | --- | --- | --- |
| Pbdc1 (polysaccharide biosynthesis domain containing 1) | no change with or without drug | 0 | -0.51 | inactive |
| Sertm1 (serine rich and transmembrane domain containing 1) | no change with or without drug | 1.91 | 1.85 | inactive |

Additional reagents:
Gene	combined z-score class	viability z-score with doxorubicin	viability z-score without drug	Call
Tax1bp1 (Tax1 (human T cell leukemia virus type I) binding protein 1)	no change with or without drug	-1.12	-1.85	inactive
Selenon (selenoprotein N)	no change with or without drug	0.22	-0.17	inactive
Frrs1 (ferric-chelate reductase 1)	high cell count with doxorubicin only	2.92	1.52	inactive
Sema4g	no change with or without drug	0	-1.01	inactive
Or6c208 (olfactory receptor family 6 subfamily C member 208)	no change with or without drug	-0.9	-1.18	inactive
Crebrf (CREB3 regulatory factor)	no change with or without drug	0.56	1.52	inactive
Prdx4 (peroxiredoxin 4)	no change with or without drug	1.35	0.17	inactive
Acy3 (aminoacylase 3)	low cell count with doxorubicin only	-2.25	-1.85	active
Srsf9 (serine and arginine-rich splicing factor 9)	no change with or without drug	0.34	0.17	inactive
Gpr88 (G-protein coupled receptor 88)	no change with or without drug	1.57	1.52	inactive
Vmn2r57 (vomeronasal 2, receptor 57)	no change with or without drug	0.11	0.34	inactive
Vmn1r9 (vomeronasal 1 receptor 9)	low cell count with doxorubicin only	-2.7	-0.67	active
Apcs (amyloid P component, serum)	no change with or without drug	-0.11	-1.69	inactive
Gmip (Gem-interacting protein)	no change with or without drug	0.56	-0.17	inactive
Fastkd1 (FAST kinase domains 1)	no change with or without drug	1.8	0.51	inactive
Gdf7 (growth differentiation factor 7)	high cell count without drug only	-0.67	2.36	inactive
